At least one structure is not confirmed: it was looked up by name or label, or the drawing left a doubt.
Tested on: JNK
Assay: Immunoblot of phosphorylated JNK in Jurkat T cells
Assay type: cell-based, human
Settings: PMA/ionomycin-activated Jurkat, 100 nM Roc-1, SP 600125 20 µM

Oc1c2ccccc2c2c3c(cccc13)N=N2 [SP 600125, reference compound]
rocaglamide-enhanced phosphorylation of JNK: largely inhibited

Source: patent publication EP1693059A1, “Use of rocaglamide derivatives as NF-AT-specific inhibitors for the treatment of certain inflammatory diseases” (Deutsches Krebsforschungszentrum, priority 2005, dated 2006)
